Source: US20250197505A1
Substitutions are numbered along the chain they refer to. Results are given in words; binding and its absence hold for the method and conditions named. Some entries that bind do so weakly or less than the wild type.

Protein sequences, listed by entry. Tags and fused reporters are not part of them. Lines headed by an entry give the natural chain unless they say otherwise; changes in a name come on top. Residues count along the entry.
UniProt Q13241: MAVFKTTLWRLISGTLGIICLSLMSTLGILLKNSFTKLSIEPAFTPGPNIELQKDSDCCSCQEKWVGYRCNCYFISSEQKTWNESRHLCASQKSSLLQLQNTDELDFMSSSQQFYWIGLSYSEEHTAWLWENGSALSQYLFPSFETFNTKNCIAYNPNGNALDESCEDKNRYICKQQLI
human CD94 protein: residues 34-179 of Q13241

B1: anti-CD94 antibody clone 18H3 (antibody, V domains shown)
VH: EVQLVQSGAEVKKPGESLKISCKGSGYRFTSYWIGWVRQMPGKGLEWMGIIYPGDSDTRYSPSFQGQVIISADKSITTAFLQWSSLKASDTAMYYCARPFDYGGSPGYFDYWGQGTLVTVSS
VL: DIQMTQSPSTLSASVGDRVTITCRASQSIRSWLAWYQQKPGKAPKLLIYKASSLESGVPSRFSGSGSGTEFTLTISSLQPDDFATYYCQQYNTFWTFGQGTKVEIK
B2: Ab.27 hG1 (antibody, V domains shown)
VH: EVQLLESGGGLVKPGGSLRLSCAASGFTFSSYSMNWVRQAPGKGLEWVSSISTSSNFIYYADSVKGRFTISRDNAKNSLYLQMNSLRAEDTAVYYCARDLGRYYYYMDVWGKGTTVTVSS
VL: DIVMTQSPSSLSASVGDRVTITCRASQSISSWLAWFQQKPGKAPKSLIYAASSLQSGVPSKFSGSGSGTDFTLTISSLQPEDVATYYCQKYNSAPFTFGPGTKVDIK
B3: Ab.28 hG1 (antibody, V domains shown)
VH: B2 VH
VL: B2 VL with F36Y, G41E
B4: Ab.29 hG1 (antibody, V domains shown)
VH: B2 VH
VL: B2 VL with F36Y, A43V
B5: Ab.31 hG1 (antibody, V domains shown)
VH: B2 VH
VL: B2 VL with F36Y, K61R
B6: Ab.32 hG1 (antibody, V domains shown)
VH: B2 VH
VL: B2 VL with F36Y, V83F
B7: Ab.33 hG1 (antibody, V domains shown)
VH: B2 VH
VL: B2 VL with F36Y, K90Q
B8: Ab.34 hG1 (antibody, V domains shown)
VH: B2 VH
VL: B2 VL with F36Y, A94Y
B9: Ab.22 Fab (Fab, V domains shown)
VH: B2 VH with L5V
VL: B2 VL with F36Y
B10: Ab.24 Fab (Fab, V domains shown)
VH: B2 VH with N56S
VL: B2 VL with F36Y
B11: Ab.25 Fab (Fab, V domains shown)
VH: B2 VH with F57Y
VL: B2 VL with F36Y
B12: Ab.26 Fab (Fab, V domains shown)
VH: B2 VH
VL: B2 VL with V3Q, F36Y
B13: Ab.27 Fab (Fab, V domains shown)
VH: B2 VH
VL: B2 VL
B14: Ab.28 Fab (Fab, V domains shown)
VH: B2 VH
VL: B2 VL with F36Y, G41E
B15: Ab.29 Fab (Fab, V domains shown)
VH: B2 VH
VL: B2 VL with F36Y, A43V
B16: Ab.31 Fab (Fab, V domains shown)
VH: B2 VH
VL: B2 VL with F36Y, K61R
B17: Ab.32 Fab (Fab, V domains shown)
VH: B2 VH
VL: B2 VL with F36Y, V83F
B18: Ab.33 Fab (Fab, V domains shown)
VH: B2 VH
VL: B2 VL with F36Y, K90Q
B19: Ab.34 Fab (Fab, V domains shown)
VH: B2 VH
VL: B2 VL with F36Y, A94Y
B20: Ab.22 hG1 (antibody, V domains shown)
VH: B2 VH with L5V
VL: B2 VL with F36Y
B21: Ab.24 hG1 (antibody, V domains shown)
VH: B2 VH with N56S
VL: B2 VL with F36Y
B22: Ab.25 hG1 (antibody, V domains shown)
VH: B2 VH with F57Y
VL: B2 VL with F36Y
B23: Ab.26 hG1 (antibody, V domains shown)
VH: B2 VH
VL: B2 VL with V3Q, F36Y

Assays:
[1] = molecular target: human CD94 expressed on cells (human primary NK cells in PBMCs; HEK cells expressing human CD94) (human) (UniProt Q13241); assay: flow cytometry, hybridoma supernatant on human primary NK cells
[2] = molecular target: human CD94 expressed on cells (human primary NK cells in PBMCs; HEK cells expressing human CD94) (human) (UniProt Q13241); assay: competition assay, flow cytometry on CD3-CD56+ NK cells in healthy donor PBMCs; AF647-labelled 18H3 titrated, incubated concurrently with a fixed concentration of 1M4 or Mouse IgG1, or of 1E4 or Human IgG1
[3] = molecular target: human CD94 expressed on cells (human primary NK cells in PBMCs; HEK cells expressing human CD94) (human) (UniProt Q13241); assay: flow cytometry, human IgG1 on HEK cells expressing human CD94
[4] = molecular target: human CD94 protein (human) (UniProt Q13241); assay: OCTET BLI, Fab on human CD94 protein

Row | Binder | binding [3] | binding [4] | also measured
1 | B1 |  |  | binding [1]: binds; binding [2]: binds
2 | B2 | binds |  | 
3 | B3 | binds |  | 
4 | B4 | binds |  | 
5 | B5 | binds |  | 
6 | B6 | binds |  | 
7 | B7 | binds |  | 
8 | B8 | binds |  | 
9 | B9 |  | binds | 
10 | B10 |  | binds | 
11 | B11 |  | binds | 
12 | B12 |  | binds | 
13 | B13 |  | binds | 
14 | B14 |  | binds | 
15 | B15 |  | binds | 
16 | B16 |  | binds | 
17 | B17 |  | binds | 
18 | B18 |  | binds | 
19 | B19 |  | binds | 
20 | B20 | binds |  | 
21 | B21 | binds |  | 
22 | B22 | binds |  | 
23 | B23 | binds |  | 
